This note sets out measurements from paper PMC3672163.

Amino acid sequences for entries named in this document (tags omitted). A change or cut given only in a name is not applied to a line headed by its entry. Residues count along the entry.
UniProt O95235: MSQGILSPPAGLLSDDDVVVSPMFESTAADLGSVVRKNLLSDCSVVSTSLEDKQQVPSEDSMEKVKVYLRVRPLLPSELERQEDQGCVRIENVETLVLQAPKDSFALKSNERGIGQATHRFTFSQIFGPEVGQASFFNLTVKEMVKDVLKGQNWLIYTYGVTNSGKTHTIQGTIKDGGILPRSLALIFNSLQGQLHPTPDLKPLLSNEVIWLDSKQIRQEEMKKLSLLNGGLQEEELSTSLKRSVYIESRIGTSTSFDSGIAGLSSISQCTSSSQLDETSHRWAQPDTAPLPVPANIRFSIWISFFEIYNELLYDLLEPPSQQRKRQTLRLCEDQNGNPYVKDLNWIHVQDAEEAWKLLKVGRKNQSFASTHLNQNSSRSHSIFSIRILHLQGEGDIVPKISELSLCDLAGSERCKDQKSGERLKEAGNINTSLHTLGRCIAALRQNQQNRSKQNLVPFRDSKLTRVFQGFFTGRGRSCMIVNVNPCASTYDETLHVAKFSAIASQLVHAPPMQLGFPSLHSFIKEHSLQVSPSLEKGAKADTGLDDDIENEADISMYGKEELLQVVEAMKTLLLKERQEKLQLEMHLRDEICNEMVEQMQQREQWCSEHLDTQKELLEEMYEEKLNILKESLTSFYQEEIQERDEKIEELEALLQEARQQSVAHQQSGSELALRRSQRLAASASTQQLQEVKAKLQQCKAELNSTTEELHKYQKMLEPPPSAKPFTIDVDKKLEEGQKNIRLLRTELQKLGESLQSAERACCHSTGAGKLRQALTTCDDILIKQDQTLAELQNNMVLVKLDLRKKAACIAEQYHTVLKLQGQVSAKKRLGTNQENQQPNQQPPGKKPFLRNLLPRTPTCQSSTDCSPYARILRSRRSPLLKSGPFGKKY
HA-MKlp2(1-842): residues 1-842 of O95235
UniProt Q96GD4: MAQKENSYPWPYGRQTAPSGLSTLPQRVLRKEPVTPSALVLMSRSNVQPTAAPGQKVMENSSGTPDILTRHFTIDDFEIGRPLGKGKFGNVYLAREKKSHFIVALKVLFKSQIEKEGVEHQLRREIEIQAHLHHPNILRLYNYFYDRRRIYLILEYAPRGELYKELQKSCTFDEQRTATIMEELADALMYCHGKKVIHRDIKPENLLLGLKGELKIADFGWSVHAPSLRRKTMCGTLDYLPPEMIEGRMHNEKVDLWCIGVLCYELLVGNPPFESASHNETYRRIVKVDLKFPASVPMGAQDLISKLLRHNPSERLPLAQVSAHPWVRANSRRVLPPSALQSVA
UniProt P53350: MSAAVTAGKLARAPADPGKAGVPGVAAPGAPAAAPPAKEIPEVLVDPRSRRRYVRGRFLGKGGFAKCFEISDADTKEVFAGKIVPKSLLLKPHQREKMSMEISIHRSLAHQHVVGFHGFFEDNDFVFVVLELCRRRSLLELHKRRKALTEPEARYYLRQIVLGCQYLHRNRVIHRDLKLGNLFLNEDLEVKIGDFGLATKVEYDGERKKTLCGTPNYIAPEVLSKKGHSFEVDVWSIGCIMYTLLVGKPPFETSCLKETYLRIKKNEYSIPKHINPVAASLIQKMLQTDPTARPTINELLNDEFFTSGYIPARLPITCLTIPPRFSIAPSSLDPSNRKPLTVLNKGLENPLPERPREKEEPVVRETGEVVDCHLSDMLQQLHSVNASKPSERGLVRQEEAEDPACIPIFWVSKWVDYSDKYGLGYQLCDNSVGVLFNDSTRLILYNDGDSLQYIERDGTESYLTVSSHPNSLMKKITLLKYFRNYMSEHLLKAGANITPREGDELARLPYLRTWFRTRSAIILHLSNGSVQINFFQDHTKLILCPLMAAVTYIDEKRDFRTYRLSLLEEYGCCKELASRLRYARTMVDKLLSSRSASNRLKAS

These are yes or no findings as the source states them, for the method shown. In cells and extracts the contact can be indirect. Some results given as binding are weak or reduced against the parent protein; the word gives no strength.

One assay addresses HA-MKlp2(1-890) (UniProt O95235). As to the kind of experiment: co-IP; HeLa cell lysates expressing HA-MKlp2 with Flag-Aurora B or Flag-Plk1; immunoprecipitation with antibodies against HA (Figure S2D).
The target in another assay is HA-MKlp2(1-842) (UniProt O95235). The assay is described as above.

Turning to “Flag-Aurora B (from UniProt Q96GD4 1-344) (enzyme)”, the binding result with HA-MKlp2(1-890) and with HA-MKlp2(1-842) was “binds” throughout.

“Flag-Plk1 (from UniProt P53350 1-603) (enzyme)”: the binding entry in the assay with HA-MKlp2(1-890) and with HA-MKlp2(1-842) was “binds” throughout.
